From ChEMBL document CHEMBL3988442, “University of Dundee, Small-Polar-MMV Screening Library” (2021).

Protein sequences, listed by entry. Tags and fused reporters are not part of them.
UniProt E9BF75, entry or part of it: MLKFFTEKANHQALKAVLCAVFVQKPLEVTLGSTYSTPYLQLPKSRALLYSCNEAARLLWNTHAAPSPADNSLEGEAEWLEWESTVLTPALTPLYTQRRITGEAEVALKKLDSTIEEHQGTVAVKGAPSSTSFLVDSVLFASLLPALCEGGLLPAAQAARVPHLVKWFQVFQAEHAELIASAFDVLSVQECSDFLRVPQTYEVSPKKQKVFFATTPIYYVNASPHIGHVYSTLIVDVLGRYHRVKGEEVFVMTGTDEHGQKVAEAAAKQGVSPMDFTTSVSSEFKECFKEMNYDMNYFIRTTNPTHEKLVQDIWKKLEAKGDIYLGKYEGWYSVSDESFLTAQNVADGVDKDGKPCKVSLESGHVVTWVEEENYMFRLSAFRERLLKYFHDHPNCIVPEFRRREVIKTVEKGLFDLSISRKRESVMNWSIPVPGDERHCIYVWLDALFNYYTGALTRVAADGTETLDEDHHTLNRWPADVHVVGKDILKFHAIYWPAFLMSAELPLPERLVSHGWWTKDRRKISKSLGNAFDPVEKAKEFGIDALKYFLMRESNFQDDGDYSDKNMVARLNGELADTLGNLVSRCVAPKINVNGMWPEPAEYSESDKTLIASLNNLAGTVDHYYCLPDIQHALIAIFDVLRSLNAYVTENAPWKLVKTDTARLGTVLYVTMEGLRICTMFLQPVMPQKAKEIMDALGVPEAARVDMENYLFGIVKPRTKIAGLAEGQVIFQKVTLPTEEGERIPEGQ

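Methionyl-tRNA synthetase (putative), Leishmania donovani (UniProt E9BF75). Primary screen of methionyl-tRNA synthetase; the read-out is not stated. The test concentration is not given. The values are filed as inhibition. Of about 68,000 compounds tested this way, about 24 (0.035%) reached 50% or more in at least one test.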

Results are percentages, as filed.
The record does not define 0% and 100%; most values in the screen are far below 50% and negative numbers occur (in some assays of this library far below -100).
This is an unselected part of the compounds tested.

| Compound | inhibition |
|---|---|
| `COCCN1C(=O)C[C@H]2[C@H]1CCN2Cc1ccccc1` | 12.94 |
| `CNS(=O)(=O)Cc1ccc(CNc2ccc(C#N)cn2)cc1` | 15.16 |
| `O=C(c1cc[nH]n1)N1CCN(C(c2ccccc2)C(F)(F)F)CC1` (configuration not stated) | 12.64 |
| `CCn1ccnc1CN1CCOC(Cn2cccn2)C1` (configuration not stated) | 13.47 |
| `Cc1ccc(N2C[C@H](C)[C@]3(CCN(c4cccnc4)C3=O)C2)nn1` | 2.732 |
| `OCC(CO)Nc1ccc2c(Cl)ccc(Cl)c2n1` | 15.04 |
| `c1cncc(NCCNC2CCCNC2)c1` (configuration not stated) | 11.96 |
| `CCCOc1ccc(OCCN2CCOCS2(=O)=O)cc1` | 11.46 |
| `CN1C(=O)Cc2cc(-c3csc(CCN4CCOC4=O)n3)ccc21` | 7.229 |
| `Cc1nnc(NC(=O)NCc2ccc(N3CCC(C)CC3)nc2)s1` | 19.89 |
| `COCCN(C(=O)c1cc(C)no1)c1ccc(C#N)cc1` | 10.48 |
| `COCc1cc(O)nc(C2CCCN(Cc3ccc(F)cc3)C2)n1` (configuration not stated) | 6.824 |
| `Cc1nc(CN(C)C2CCN(CCc3ccccn3)C2)no1` (configuration not stated) | 13.11 |
| `CCc1cc(CN(C)Cc2nc(-c3sccc3C)oc2C)on1` | 11.17 |
| `Cc1noc(C)c1CNC(=O)N1CCC(CN2CCC(C)CC2)CC1` | 14.89 |
| `COCCn1cnc(-c2nc(C(=O)N3CCOCC3)c3ccccn23)c1` | 7.407 |
| `Cn1nccc1CNC(=O)Nc1cc(C(F)(F)F)c[nH]c1=O` | 14.29 |
| `COc1ccccc1C1CNCCN1C(C)=O` (configuration not stated) | 9.494 |
| `Cc1occc1C(=O)N1Cc2nccn2CC(CN(C)C)C1` (configuration not stated) | 2.747 |
| `CC(C)Oc1cc(N2C[C@@H](C)O[C@@H](C)C2)nc(N)n1` | 19.93 |
| `Cc1ccsc1CCNC(C)C(=O)NC1CCCC1` (configuration not stated) | 17.42 |
| `COCCO[C@H]1CCN(c2ccc(C)nn2)[C@H]1Cc1cnn(C)c1` | 3.526 |
| `O=C(Nc1cnn(CC(F)F)c1)c1cccc(-n2cnnn2)c1` | 11.21 |
| `CCN(Cc1c(F)cccc1F)C(=O)c1ccncc1O` | 11.98 |
| `CCC(C)CS(=O)(=O)NC(=O)C1CCC1` (configuration not stated) | -4.01 |
| `Cc1ncsc1-c1nnc(C2CCN(Cc3ccc(Cl)cc3)CC2)o1` | 4.471 |
| `Cc1ncsc1CN1C[C@@H]2CN(S(C)(=O)=O)CCO[C@@H]2C1` | 12.89 |
| `CCCOC1CCCN(C(=O)c2ccnc(N3CCN(C)CC3)c2)C1` (configuration not stated) | 6.355 |
| `CN(CC(N)=O)S(=O)(=O)c1ccc(F)cc1F` | 14.18 |
| `Cn1cnc2c1C(COCC1CCOCC1)CN(C(=O)c1ccco1)C2` (configuration not stated) | 9.841 |
| `CCOC(C)C(=O)NCc1cccc(CN2CCCCCC2)c1` (configuration not stated) | 12.53 |
| `Cc1cc(C)n(CC2CN(CC(=O)NCc3ccccn3)CCO2)n1` (configuration not stated) | 19.2 |
| `CC(=O)Cn1cc(C#N)c(=O)c2cc(Br)ccc21` | 18.18 |
| `Cc1noc(C)c1-c1cncc(C2CCCN2Cc2ccncc2)n1` (configuration not stated) | 12.67 |
| `Cc1c(CNC(=O)c2cn(CCC3CCCCN3)nn2)cnn1C` (configuration not stated) | 0.7792 |
| `Cc1nn(C)c(C)c1CC(=O)N1CCC(N(C)c2cccnn2)CC1` | 12.24 |
| `CC(C)(NCc1cccc(O)c1)c1ccc2c(c1)OCO2` | 16.4 |
| `Cc1nc2c(c(NC(C)C)n1)CCN(Cc1cccnc1)CC2` | -212.8 |
| `CCS(=O)(=O)N1CCCC2(COCCN(c3nncs3)C2)C1` (configuration not stated) | 20.44 |
| `Cn1nnc2c1CCN(S(C)(=O)=O)C2COCc1ccccc1` (configuration not stated) | 2.198 |
| `Cc1nc(CNC(=O)CCN2CCN(c3ccccc3)CC2)oc1C` | 9.763 |
| `O=C1NCC2CN(Cc3ccccc3OCc3ccccn3)CCN12` (configuration not stated) | 7.614 |
| `CCc1n[nH]c(C2CN(C(=O)c3nc(C)n4ccccc34)CCO2)n1` (configuration not stated) | 12.89 |
| `CCn1cc(CN2CCC(O)(Cn3nc(C)ccc3=O)CC2)cn1` | 15.1 |
| `O=C1COC2(CCN(Cc3cccs3)CC2)CN1c1cncnc1` | 19.02 |
| `COc1ccc(C(=O)N2CCCC(NC(=O)C(C)C)C2)c(O)c1` (configuration not stated) | 11.4 |
| `COc1ccccc1OCc1nc2cc3c(cc2c(=O)o1)OCCCO3` | 11.18 |
| `CS(=O)(=O)NC1CCCN(C(=O)c2cccnc2)C1` (configuration not stated) | 19.34 |
| `Cc1nccc(N[C@H]2CN(CCC(=O)NC3CCCC3)C[C@@H]2C2CC2)n1` | 3.922 |
| `O=C1CCN(C(=O)CCc2cc(Br)cs2)CCN1` | 14.71 |
| `CCc1nnc(N2C[C@@H](NC(C)=O)[C@H](c3ccc(C)o3)C2)s1` | 9.964 |
| `Cc1cc(NC(=O)CNC(C)(C)c2nc(C)c(C)s2)no1` | 12.24 |
| `CNC(=O)c1sc2ccccc2c1CC1CCCCN1Cc1ncc[nH]1` (configuration not stated) | 12.11 |
| `O=S(=O)(Cc1ccccc1CN1CCOCC(O)C1)c1ccccc1` (configuration not stated) | -2.346 |
| `COC(=O)c1ccoc1CN(C)CC(=O)NC1CC1` | 13.97 |
| `Cn1cnnc1SCC(=O)NC1CC(=O)N(CCc2ccccc2)C1` (configuration not stated) | 5.263 |
| `CCN(Cc1cccc2c1OCO2)C(=O)Nc1ccncc1` | 5.923 |

Some entries from above, unchanged:

| Compound | inhibition |
|---|---|
| `CCc1cc(CN(C)Cc2nc(-c3sccc3C)oc2C)on1` | 11.17 |
| `Cc1noc(C)c1-c1cncc(C2CCCN2Cc2ccncc2)n1` (configuration not stated) | 12.67 |
| `CCN(Cc1c(F)cccc1F)C(=O)c1ccncc1O` | 11.98 |